This is an account of results in patent publication US20190062414A1 (PHILOGEN S P A, published 2019).

These are yes or no findings as the source states them, for the method shown. Some binding calls cover weakened binding; strength is not graded here.

Experiment [1] concerns the target T1, BCD domains of murine tenascin-C (murine, UniProt Q80YX1 1349-1620, limits assumed).
T1 construct: domain: BCD domains; Coated on a CM5 chip; also called domain BCD of murine Tenascin-C
T1 sequence (looked up): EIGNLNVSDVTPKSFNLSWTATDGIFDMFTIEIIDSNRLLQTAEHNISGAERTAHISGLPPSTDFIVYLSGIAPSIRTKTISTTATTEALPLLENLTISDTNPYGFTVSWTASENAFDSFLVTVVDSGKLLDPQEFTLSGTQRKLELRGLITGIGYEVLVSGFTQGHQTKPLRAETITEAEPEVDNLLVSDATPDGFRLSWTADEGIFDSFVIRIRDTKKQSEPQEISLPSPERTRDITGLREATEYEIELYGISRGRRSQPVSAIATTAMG
Put plainly: Biacore (SPR).

Experiment [2] addresses T1, BCD domains of murine tenascin-C. Kind of experiment: SPR (Biacore), BCD domains of murine tenascin-C on CM5 chip.

B1: scFv(CPR01) (scFv)
scFv: EVQLLESGGGLVQPGGSLRLSCAASGFTFSSYAMSWVRQAPGKGLEWVSAIKARGGLTYYADSVKGRFTISRDNSKNTLYLQMNSLRAEDTAVYYCAKGGAPFDYWGQGTLVTVSSGGGGSGGGGSGGGGSSELTQDPAVSVALGQTVRITCQGDSLRSYYASWYQQKPGQAPVLVIYGKNNRPSGIPDRFSGSSSGNTASLTITGAQAEDEADYYCNSSPLNRLAVVFGGGTKLTVLG
notes: Expressed in CHO.S cells as scFv
With B1, the binding entry in experiment [1] and in experiment [2] was “binds” in each case.
